Measured values taken from publication PMC5078767.
No constants are given. Whether binding was seen depends on the method and setting. In cells and extracts the contact can be indirect. Some binding calls cover weakened binding; strength is not graded here. For some of these results: Where a sequence is shown, tags or fusion partners need not be part of it.

By UniProt entry, the sequences of proteins in these tests, tags left out.
UniProt O15169: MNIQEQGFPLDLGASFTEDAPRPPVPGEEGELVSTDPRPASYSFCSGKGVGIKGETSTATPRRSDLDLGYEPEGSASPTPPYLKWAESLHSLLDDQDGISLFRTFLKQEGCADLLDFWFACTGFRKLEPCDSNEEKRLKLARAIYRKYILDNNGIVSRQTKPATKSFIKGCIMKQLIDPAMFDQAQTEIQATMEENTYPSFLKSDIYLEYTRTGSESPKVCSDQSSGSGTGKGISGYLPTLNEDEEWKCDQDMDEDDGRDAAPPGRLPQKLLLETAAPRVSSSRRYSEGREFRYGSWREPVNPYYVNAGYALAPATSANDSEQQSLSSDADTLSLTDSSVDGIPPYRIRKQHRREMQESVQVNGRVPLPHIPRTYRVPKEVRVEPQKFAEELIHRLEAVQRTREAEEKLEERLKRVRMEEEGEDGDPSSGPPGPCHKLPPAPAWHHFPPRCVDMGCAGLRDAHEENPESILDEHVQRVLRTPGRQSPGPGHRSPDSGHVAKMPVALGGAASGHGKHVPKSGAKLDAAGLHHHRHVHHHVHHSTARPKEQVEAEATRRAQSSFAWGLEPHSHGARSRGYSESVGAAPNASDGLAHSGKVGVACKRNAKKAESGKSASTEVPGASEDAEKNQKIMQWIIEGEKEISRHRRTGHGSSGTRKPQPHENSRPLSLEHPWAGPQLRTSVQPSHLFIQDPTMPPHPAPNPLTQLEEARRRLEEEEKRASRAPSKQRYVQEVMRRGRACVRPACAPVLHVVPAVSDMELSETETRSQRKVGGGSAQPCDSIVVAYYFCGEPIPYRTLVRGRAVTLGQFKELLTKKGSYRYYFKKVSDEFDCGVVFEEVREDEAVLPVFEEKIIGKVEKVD

T1: endogenous DVL-1 (human (endogenous in MDA-MB-231 or SW480)) (UniProt O14640)
T1 sequence: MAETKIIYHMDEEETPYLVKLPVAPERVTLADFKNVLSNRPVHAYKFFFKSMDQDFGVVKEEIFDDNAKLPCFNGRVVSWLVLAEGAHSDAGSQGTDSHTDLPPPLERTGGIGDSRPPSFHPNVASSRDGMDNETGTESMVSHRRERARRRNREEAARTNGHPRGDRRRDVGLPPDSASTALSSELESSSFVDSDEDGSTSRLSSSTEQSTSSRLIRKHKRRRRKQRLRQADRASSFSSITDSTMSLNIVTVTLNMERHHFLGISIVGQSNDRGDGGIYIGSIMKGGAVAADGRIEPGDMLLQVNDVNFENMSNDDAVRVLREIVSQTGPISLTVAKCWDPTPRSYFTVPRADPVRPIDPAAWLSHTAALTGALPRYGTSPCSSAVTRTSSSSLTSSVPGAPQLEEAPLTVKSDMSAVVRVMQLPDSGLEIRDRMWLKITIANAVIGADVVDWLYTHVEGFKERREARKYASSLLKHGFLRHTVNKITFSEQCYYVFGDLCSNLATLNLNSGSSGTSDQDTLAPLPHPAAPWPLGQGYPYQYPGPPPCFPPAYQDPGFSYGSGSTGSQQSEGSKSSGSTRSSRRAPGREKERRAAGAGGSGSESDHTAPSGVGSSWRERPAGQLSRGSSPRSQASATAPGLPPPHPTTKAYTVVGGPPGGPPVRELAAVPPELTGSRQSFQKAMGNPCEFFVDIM

T2: MBP-LMO2 recombinant fusion protein (human) (UniProt P25791)
T2 sequence: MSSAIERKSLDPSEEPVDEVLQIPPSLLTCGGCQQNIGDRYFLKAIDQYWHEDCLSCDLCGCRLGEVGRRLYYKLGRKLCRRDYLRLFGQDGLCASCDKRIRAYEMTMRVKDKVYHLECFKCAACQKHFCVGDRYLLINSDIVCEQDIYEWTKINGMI

T3: endogenous LMO2 (human (endogenous in MDA-MB-231 and SW480)) (UniProt P25791)
T3 sequence: T2 sequence

B1: Myc-DVL-1 (full-length human Dishevelled-1) (protein, UniProt O14640 1-695)
chain: T1 sequence
B2: DVL-2 ΔDIX (200 C-terminal aa), Myc-tagged (domain or fragment, UniProt O14641 200-736)
chain: TSELESTSLGDSDEEDTMSRFSSSTEQSSASRLLKRHRRRRKQRPPRLERTSSFSSVTDSTMSLNIITVTLNMEKYNFLGISIVGQSNERGDGGIYIGSIMKGGAVAADGRIEPGDMLLQVNDMNFENMSNDDAVRVLRDIVHKPGPIVLTVAKCWDPSPQAYFTLPRNEPIQPIDPAAWVSHSAALTGTFPAYPGSSSMSTITSGSSLPDGCEGRGLSVHTDMASVTKAMAAPESGLEVRDRMWLKITIPNAFLGSDVVDWLYHHVEGFPERREARKYASGLLKAGLIRHTVNKITFSEQCYYVFGDLSGGCESYLVNLSLNDNDGSSGASDQDTLAPLPGATPWPLLPTFSYQYPAPHPYSPQPPPYHELSSYTYGGGSASSQHSEGSRSSGSTRSDGGAGRTGRPEERAPESKSGSGSESEPSSRGGSLRRGGEASGTSDGGPPPSRGSTGGAPNLRAHPGLHPYGPPPGMALPYNPMMVVMMPPPPPPVPPAVQPPGAPPVRDLGSVPPELTASRQSFHMAMGNPSEFFVDVM
B3: endogenous DVL-1 (protein, UniProt O14640 1-695)
chain: T1 sequence
B4: DVL-1 PDZ domain (200-400 aa), Myc-tagged (domain or fragment, UniProt O14640 200-400)
chain: TSRLSSSTEQSTSSRLIRKHKRRRRKQRLRQADRASSFSSITDSTMSLNIVTVTLNMERHHFLGISIVGQSNDRGDGGIYIGSIMKGGAVAADGRIEPGDMLLQVNDVNFENMSNDDAVRVLREIVSQTGPISLTVAKCWDPTPRSYFTVPRADPVRPIDPAAWLSHTAALTGALPRYGTSPCSSAVTRTSSSSLTSSVPG
B5: DVL-1 ΔDEP (1-400 aa), Myc-tagged (domain or fragment, UniProt O14640 1-400)
chain: MAETKIIYHMDEEETPYLVKLPVAPERVTLADFKNVLSNRPVHAYKFFFKSMDQDFGVVKEEIFDDNAKLPCFNGRVVSWLVLAEGAHSDAGSQGTDSHTDLPPPLERTGGIGDSRPPSFHPNVASSRDGMDNETGTESMVSHRRERARRRNREEAARTNGHPRGDRRRDVGLPPDSASTALSSELESSSFVDSDEDGSTSRLSSSTEQSTSSRLIRKHKRRRRKQRLRQADRASSFSSITDSTMSLNIVTVTLNMERHHFLGISIVGQSNDRGDGGIYIGSIMKGGAVAADGRIEPGDMLLQVNDVNFENMSNDDAVRVLREIVSQTGPISLTVAKCWDPTPRSYFTVPRADPVRPIDPAAWLSHTAALTGALPRYGTSPCSSAVTRTSSSSLTSSVPG
B6: DVL-1 ΔDIX (200 C-terminal aa), Myc-tagged (domain or fragment, UniProt O14640 200-695)
chain: TSRLSSSTEQSTSSRLIRKHKRRRRKQRLRQADRASSFSSITDSTMSLNIVTVTLNMERHHFLGISIVGQSNDRGDGGIYIGSIMKGGAVAADGRIEPGDMLLQVNDVNFENMSNDDAVRVLREIVSQTGPISLTVAKCWDPTPRSYFTVPRADPVRPIDPAAWLSHTAALTGALPRYGTSPCSSAVTRTSSSSLTSSVPGAPQLEEAPLTVKSDMSAVVRVMQLPDSGLEIRDRMWLKITIANAVIGADVVDWLYTHVEGFKERREARKYASSLLKHGFLRHTVNKITFSEQCYYVFGDLCSNLATLNLNSGSSGTSDQDTLAPLPHPAAPWPLGQGYPYQYPGPPPCFPPAYQDPGFSYGSGSTGSQQSEGSKSSGSTRSSRRAPGREKERRAAGAGGSGSESDHTAPSGVGSSWRERPAGQLSRGSSPRSQASATAPGLPPPHPTTKAYTVVGGPPGGPPVRELAAVPPELTGSRQSFQKAMGNPCEFFVDIM
B7: DVL-2 PDZ domain (200-400 aa), Myc-tagged (domain or fragment, UniProt O14641 200-400)
chain: TSELESTSLGDSDEEDTMSRFSSSTEQSSASRLLKRHRRRRKQRPPRLERTSSFSSVTDSTMSLNIITVTLNMEKYNFLGISIVGQSNERGDGGIYIGSIMKGGAVAADGRIEPGDMLLQVNDMNFENMSNDDAVRVLRDIVHKPGPIVLTVAKCWDPSPQAYFTLPRNEPIQPIDPAAWVSHSAALTGTFPAYPGSSSMS
B8: DVL-2 ΔDEP (1-400 aa), Myc-tagged (domain or fragment, UniProt O14641 1-400)
chain: MAGSSTGGGGVGETKVIYHLDEEETPYLVKIPVPAERITLGDFKSVLQRPAGAKYFFKSMDQDFGVVKEEISDDNARLPCFNGRVVSWLVSSDNPQPEMAPPVHEPRAELAPPAPPLPPLPPERTSGIGDSRPPSFHPNVSSSHENLEPETETESVVSLRRERPRRRDSSEHGAGGHRTGGPSRLERHLAGYESSSTLMTSELESTSLGDSDEEDTMSRFSSSTEQSSASRLLKRHRRRRKQRPPRLERTSSFSSVTDSTMSLNIITVTLNMEKYNFLGISIVGQSNERGDGGIYIGSIMKGGAVAADGRIEPGDMLLQVNDMNFENMSNDDAVRVLRDIVHKPGPIVLTVAKCWDPSPQAYFTLPRNEPIQPIDPAAWVSHSAALTGTFPAYPGSSSMS

How the values were obtained:
[1] = molecular target: T1, endogenous DVL-1 (human (endogenous in MDA-MB-231 or SW480)); assay: co-IP; lysates of LMO2-overexpressing, control and sh-LMO2 MDA-MB-231/SW480 cells, upon Wnt3A stimulation; immunoprecipitated with anti-DVL-1/2, immunoblotted with anti-Axin1; 1 mg total protein
[2] = molecular target: T2, MBP-LMO2 recombinant fusion protein (human); assay: pull-down; purified recombinant MBP-LMO2 incubated with lysates of HEK293T cells transiently overexpressing Myc-DVL constructs; precipitated with amylose resin; anti-Myc immunoblot; 1 mg total protein; only the target purified
[3] = molecular target: T3, endogenous LMO2 (human (endogenous in MDA-MB-231 and SW480)); assay: co-IP; isolated cytosolic and nuclear fractions of MDA-MB-231 and SW480 cells (Fig. S3B)
[4] = molecular target: T3, endogenous LMO2 (human (endogenous in MDA-MB-231 and SW480)); assay: co-IP; lysates of MDA-MB-231 or SW480 cells; immunoprecipitated with anti-LMO2, immunoblotted with anti-DVL-1 or anti-DVL-2; 1 mg total protein; endogenous proteins

Molecule	binding [2]	also measured
endogenous Axin1 (from UniProt O15169 1-862)	–	binding [1]: binds
B1	binds	–
B2	binds	–
B3	–	binding [3]: binds; binding [4]: binds
B4	binds	–
B5	binds	–
B6	binds	–
B7	binds	–
B8	binds	–
